Record: PubChem BioAssay AID1259405 (NCATS, 2018)
Purpose: 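Knock-downs that lift recombinant protein yield in hamster ovary cells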 (primary screen). Cells: Chinese hamster CHO-K1 ovary cells with stable secreted eGFP expression. Reagent: single siRNA against mouse genes, 0.8 pmol siRNA per well (2 µl of 400 nM stock). Time to read-out: 3 days. Detection: 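Percent of the per-plate non-targeting control median for intracellular GFP per well by laser scanning cytometry and for cell viability by ATP luminescence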. Reading the numbers: GFP, % of control: higher = more GFP per well, higher productivity; viability (ATP), % of control: higher = more viable cells (more ATP). Hit rule: 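Called active when intracellular GFP, relative to negative control, is at or above 120%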.
The whole screen tested about 50,000 reagents; below is an unselected part. In the full data, about 4,000 (8%) are marked active. 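Mouse siRNA library applied to hamster cells; one well for each siRNA.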 Reagents against one gene are numbered here. Reagent sequences are not shown.

What did the screen give for Ccdc32 #1?
GFP, % of control: 65.2; viability (ATP), % of control: 88.4; Outcome: inactive

With Ccdc32 #2, how do the results read?
GFP, % of control: 87.4; viability (ATP), % of control: 72.7; Outcome: inactive

What is on record for Ccdc32 #3?
GFP, % of control: 144; viability (ATP), % of control: 84.5; Outcome: active

With Or1e25 #1, what was measured?
GFP, % of control: 32.7; viability (ATP), % of control: 22.9; Outcome: inactive

For Or1e25 #2, how do the results read?
GFP, % of control: 87.4; viability (ATP), % of control: 73.9; Outcome: inactive

What is on record for Or1e25 #3?
GFP, % of control: 53.8; viability (ATP), % of control: 113; Outcome: inactive

With Spats1 #1, what was measured?
GFP, % of control: 152; viability (ATP), % of control: 92.4; Outcome: active

With Spats1 #2, what was measured?
GFP, % of control: 83.3; viability (ATP), % of control: 119; Outcome: inactive

For Spats1 #3, how do the results read?
GFP, % of control: 111; viability (ATP), % of control: 130; Outcome: inactive

Which result is listed for Lsm12 #1?
GFP, % of control: 63; viability (ATP), % of control: 68; Outcome: inactive

How did the screen score Lsm12 #2?
GFP, % of control: 53; viability (ATP), % of control: 39.1; Outcome: inactive

Which result is listed for Lsm12 #3?
GFP, % of control: 50.7; viability (ATP), % of control: 37; Outcome: inactive

With Pdia6 #1, how do the results read?
GFP, % of control: 93.7; viability (ATP), % of control: 117; Outcome: inactive

What is on record for Pdia6 #2?
GFP, % of control: 89.1; viability (ATP), % of control: 84.6; Outcome: inactive

How did the screen score Pdia6 #3?
GFP, % of control: 35.7; viability (ATP), % of control: 61.9; Outcome: inactive

For Lcat #1, how do the results read?
GFP, % of control: 97.9; viability (ATP), % of control: 68.5; Outcome: inactive

What did the screen give for Lcat #2?
GFP, % of control: 98.3; viability (ATP), % of control: 153; Outcome: inactive

For Lcat #3, what was measured?
GFP, % of control: 57.9; viability (ATP), % of control: 103; Outcome: inactive

For Ptprt #1, what was measured?
GFP, % of control: 67.2; viability (ATP), % of control: 45.7; Outcome: inactive

With Ptprt #2, what does the deposit list?
GFP, % of control: 42.7; viability (ATP), % of control: 28.9; Outcome: inactive

What is on record for Ptprt #3?
GFP, % of control: 77.4; viability (ATP), % of control: 95.9; Outcome: inactive

Which result is listed for Klhl9 #1?
GFP, % of control: 67; viability (ATP), % of control: 82.6; Outcome: inactive

For Klhl9 #2, how do the results read?
GFP, % of control: 134; viability (ATP), % of control: 54.5; Outcome: active

What did the screen give for Klhl9 #3?
GFP, % of control: 97; viability (ATP), % of control: 108; Outcome: inactive

How did the screen score Or6f2 #1?
GFP, % of control: 79.2; viability (ATP), % of control: 42.6; Outcome: inactive

For Or6f2 #2, what does the deposit list?
GFP, % of control: 76.8; viability (ATP), % of control: 77.1; Outcome: inactive

With Or6f2 #3, what does the deposit list?
GFP, % of control: 87.6; viability (ATP), % of control: 81; Outcome: inactive
